Source: PMC6218562
Results are given in words; binding and its absence hold for the method and conditions named. For some of these results: Binding seen in cells or lysates may run through a third protein. Some binding calls cover weakened binding; strength is not graded here.

Chains of the proteins cited; added tags and fusions are not shown.
UniProt P04147: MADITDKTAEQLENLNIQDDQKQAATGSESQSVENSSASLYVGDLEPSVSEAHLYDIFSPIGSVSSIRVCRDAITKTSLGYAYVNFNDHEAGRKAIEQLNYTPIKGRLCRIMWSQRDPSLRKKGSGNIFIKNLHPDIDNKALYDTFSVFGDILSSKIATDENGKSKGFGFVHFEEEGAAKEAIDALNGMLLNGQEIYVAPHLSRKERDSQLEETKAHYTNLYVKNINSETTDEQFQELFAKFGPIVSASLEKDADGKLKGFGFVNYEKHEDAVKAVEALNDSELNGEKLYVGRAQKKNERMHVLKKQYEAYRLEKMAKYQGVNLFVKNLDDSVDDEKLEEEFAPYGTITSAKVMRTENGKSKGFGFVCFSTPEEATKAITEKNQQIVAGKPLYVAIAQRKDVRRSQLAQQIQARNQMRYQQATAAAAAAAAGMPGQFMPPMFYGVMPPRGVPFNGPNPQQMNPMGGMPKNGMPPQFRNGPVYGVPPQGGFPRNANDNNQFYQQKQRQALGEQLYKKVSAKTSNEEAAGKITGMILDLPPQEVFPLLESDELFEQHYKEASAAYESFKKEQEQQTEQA

Columns and labels:
[1] = target: T1, Pbp1-1Q-TAP (S. cerevisiae) (UniProt P53297); assay: co-IP; TAP-tagged Pbp1 forms held on IgG sepharose 6 fast-flow beads from cleared yeast lysates, 4 °C, 2 h; lysis buffer 50 mM HEPES KOH pH 7.5, 150 mM NaCl, 10% glycerol, 0.5% NP-40, 1 mM EDTA; western blot of the partners
T1 sequence: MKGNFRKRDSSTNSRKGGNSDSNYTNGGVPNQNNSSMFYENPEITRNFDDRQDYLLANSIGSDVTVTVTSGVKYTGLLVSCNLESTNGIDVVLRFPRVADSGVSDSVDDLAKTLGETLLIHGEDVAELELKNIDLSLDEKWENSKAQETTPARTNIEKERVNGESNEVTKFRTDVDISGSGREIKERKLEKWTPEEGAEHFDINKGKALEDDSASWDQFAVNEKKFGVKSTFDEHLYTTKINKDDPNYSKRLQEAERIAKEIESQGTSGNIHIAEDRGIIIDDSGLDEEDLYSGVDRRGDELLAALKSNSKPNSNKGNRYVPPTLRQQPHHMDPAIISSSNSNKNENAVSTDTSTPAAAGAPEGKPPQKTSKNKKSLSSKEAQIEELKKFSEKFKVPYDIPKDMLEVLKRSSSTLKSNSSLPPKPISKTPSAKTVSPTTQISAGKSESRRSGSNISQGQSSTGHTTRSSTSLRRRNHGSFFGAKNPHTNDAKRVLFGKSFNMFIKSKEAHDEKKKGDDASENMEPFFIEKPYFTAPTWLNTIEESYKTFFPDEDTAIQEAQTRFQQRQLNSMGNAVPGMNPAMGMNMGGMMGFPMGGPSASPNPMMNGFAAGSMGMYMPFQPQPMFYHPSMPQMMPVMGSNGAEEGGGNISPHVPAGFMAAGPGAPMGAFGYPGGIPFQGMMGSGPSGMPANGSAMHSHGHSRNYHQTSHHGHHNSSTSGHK

[2] = target: T2, Pbp1-1Q-TAP (S. cerevisiae), P53297; assay: semi-denaturing detergent agarose gel electrophoresis (SDD-AGE); cleared yeast lysates on a 1.5% agarose gel with 0.1% SDS, 4 °C, 30 V, ~18 h, then western blot; cells with Pbp1 1Q, 5Q, 15Q, 30Q or 40Q, rad27Δ, with or without Hsp104 over-expression or Trf4; details: remark: other sources report otherwise
T2 chain: T1 sequence

Molecule: Pab1 (from UniProt P04147 1-577)
- binding [1]: binds

B1: Lsm12 (protein, UniProt P38828 1-187)
chain: MSVSLEQTLGFRIKVTNVLDVVTEGRLYSFNSSNNTLTIQTTKKNQSPQNFKVIKCTFIKHLEVIGDKPSFNSFKKQQIKPSYVNVERVEKLLKESVIASKKKELLRGKGVSAEGQFIFDQIFKTIGDTKWVAKDIIILDDVKVQPPYKVEDIKVLHEGSNQSITLIQRIVERSWEQLEQDDGRKGG
- binding [1]: binds

B2: Pbp4 (protein, UniProt Q07362 1-185)
chain: MTTTSTTSVDGRTSSTLKATLSASGPNSNGPTPAVLPQKPKLTGWAQAAAKALPRQQQQQQQARKDDSVAVQPANTKTKTIASTAPPANIKGSSTANGSSTNKKFKRANKQPYNREEVRSYMHKLFQSYTAGEKSHSMKTYKQVLSETASGRVSTATDWGTVSSSKNKNKKYGCLSDIAKVLRNQ
- binding [1]: binds

B3: Pbp1-1Q-TAP, P53297 1-722 (protein)
chain: T1 sequence
- binding [2]: no binding
